In publication PMC7548010 one finds binding data, which are given here for 3 substances.

Protein sequences, listed by entry. Tags and fused reporters are not part of them.
UniProt Q14966: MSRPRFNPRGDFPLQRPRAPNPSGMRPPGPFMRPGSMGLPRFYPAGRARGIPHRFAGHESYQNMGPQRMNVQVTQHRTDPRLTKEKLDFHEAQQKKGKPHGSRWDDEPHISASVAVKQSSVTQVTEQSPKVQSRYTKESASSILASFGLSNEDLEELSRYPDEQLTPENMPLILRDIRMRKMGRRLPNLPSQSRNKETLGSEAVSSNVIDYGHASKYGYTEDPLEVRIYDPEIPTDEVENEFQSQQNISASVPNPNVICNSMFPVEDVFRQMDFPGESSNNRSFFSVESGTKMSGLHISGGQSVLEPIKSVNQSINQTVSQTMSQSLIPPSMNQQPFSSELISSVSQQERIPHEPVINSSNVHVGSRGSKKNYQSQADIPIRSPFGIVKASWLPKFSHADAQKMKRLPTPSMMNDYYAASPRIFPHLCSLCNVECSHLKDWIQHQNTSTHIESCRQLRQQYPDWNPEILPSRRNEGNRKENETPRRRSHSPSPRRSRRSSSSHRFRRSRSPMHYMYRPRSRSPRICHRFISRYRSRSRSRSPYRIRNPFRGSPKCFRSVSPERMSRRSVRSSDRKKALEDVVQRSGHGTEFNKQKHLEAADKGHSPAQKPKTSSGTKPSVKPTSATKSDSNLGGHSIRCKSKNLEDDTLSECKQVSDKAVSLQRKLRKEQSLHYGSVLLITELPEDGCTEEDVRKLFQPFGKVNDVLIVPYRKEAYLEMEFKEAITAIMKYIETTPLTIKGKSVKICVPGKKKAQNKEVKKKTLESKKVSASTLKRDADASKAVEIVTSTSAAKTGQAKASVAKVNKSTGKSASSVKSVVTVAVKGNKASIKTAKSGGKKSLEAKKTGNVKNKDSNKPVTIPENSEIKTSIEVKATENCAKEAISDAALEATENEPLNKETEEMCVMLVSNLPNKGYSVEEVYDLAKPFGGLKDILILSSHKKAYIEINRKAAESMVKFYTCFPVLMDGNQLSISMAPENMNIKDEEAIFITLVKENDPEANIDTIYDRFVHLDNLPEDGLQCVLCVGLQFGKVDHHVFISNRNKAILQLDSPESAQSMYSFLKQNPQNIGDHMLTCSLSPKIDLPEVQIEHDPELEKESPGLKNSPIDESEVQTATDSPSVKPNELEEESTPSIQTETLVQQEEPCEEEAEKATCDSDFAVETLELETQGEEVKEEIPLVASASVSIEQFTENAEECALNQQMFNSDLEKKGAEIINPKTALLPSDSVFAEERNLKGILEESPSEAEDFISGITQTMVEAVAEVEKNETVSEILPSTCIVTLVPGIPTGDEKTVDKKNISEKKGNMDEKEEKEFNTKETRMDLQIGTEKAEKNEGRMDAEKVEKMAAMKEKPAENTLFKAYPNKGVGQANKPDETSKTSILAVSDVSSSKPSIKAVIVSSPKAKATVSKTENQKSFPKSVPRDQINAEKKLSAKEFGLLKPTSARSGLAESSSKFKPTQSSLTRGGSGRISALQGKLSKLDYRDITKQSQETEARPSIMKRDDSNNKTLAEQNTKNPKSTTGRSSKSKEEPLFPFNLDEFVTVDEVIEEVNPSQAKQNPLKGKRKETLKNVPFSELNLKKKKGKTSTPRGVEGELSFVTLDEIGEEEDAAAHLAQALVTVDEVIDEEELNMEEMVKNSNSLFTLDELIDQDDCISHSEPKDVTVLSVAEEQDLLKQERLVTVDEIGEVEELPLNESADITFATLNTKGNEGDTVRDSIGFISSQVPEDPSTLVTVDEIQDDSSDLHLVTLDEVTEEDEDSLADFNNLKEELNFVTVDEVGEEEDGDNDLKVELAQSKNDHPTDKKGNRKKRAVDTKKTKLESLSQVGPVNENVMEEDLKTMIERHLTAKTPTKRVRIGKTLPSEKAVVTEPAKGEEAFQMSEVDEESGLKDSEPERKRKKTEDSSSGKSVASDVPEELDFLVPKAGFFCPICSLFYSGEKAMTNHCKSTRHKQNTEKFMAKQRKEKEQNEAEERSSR
UniProt Q93009: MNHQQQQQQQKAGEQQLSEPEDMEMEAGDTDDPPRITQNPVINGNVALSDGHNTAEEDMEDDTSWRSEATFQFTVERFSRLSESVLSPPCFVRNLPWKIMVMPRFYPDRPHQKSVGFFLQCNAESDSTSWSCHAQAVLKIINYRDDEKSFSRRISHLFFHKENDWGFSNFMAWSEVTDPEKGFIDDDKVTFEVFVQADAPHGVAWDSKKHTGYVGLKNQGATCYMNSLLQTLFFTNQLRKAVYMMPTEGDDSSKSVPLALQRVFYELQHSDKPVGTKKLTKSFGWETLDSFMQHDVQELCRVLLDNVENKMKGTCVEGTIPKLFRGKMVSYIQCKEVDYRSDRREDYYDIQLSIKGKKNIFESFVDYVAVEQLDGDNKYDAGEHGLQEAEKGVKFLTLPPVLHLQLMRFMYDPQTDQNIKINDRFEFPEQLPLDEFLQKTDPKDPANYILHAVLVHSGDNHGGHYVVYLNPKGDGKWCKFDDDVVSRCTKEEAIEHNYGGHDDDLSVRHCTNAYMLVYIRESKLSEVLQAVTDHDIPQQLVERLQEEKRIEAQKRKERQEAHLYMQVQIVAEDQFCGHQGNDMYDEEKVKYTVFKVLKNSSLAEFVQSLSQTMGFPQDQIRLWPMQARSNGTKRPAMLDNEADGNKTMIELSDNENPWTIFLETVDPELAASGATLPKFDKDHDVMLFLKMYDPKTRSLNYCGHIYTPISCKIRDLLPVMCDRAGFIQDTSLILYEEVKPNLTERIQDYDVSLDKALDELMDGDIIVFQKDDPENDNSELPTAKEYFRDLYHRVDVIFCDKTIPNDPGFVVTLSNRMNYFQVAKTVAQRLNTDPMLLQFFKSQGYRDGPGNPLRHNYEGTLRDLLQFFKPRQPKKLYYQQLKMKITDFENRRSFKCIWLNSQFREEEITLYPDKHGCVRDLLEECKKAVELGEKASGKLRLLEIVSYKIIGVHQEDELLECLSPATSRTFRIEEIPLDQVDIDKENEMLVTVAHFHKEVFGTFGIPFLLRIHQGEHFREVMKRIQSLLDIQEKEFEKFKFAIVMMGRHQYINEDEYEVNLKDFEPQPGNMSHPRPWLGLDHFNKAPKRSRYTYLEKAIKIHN
UniProt P16220: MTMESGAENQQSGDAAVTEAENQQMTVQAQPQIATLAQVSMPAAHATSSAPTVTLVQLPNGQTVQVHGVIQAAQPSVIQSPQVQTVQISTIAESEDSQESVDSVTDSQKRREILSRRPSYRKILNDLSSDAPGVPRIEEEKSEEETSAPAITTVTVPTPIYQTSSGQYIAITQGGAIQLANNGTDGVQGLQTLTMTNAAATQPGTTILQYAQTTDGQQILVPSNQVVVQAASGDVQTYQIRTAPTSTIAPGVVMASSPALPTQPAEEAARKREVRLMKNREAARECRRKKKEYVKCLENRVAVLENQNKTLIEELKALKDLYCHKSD

Assay [1] addresses Zinc finger protein 638 (ZNF638) (human (endogenous in SK-Hep1 and Huh-7)) (UniProt Q14966). Description: co-IP; endogenous proteins, Huh-7 cells (Supplementary Fig. S1D); immunoprecipitation and immunoblotting. A general note: Immunoblotting shows a protein as a band on a membrane.
For assay [2] the target is unchanged. Description: co-IP; endogenous proteins, SK-Hep1 cells lysed in RIPA lysis buffer with protease inhibitors; immunoprecipitation with primary antibody and protein A/G agarose, immunoblotting.
Assay [3] deals with T1, full-length SREBP1C (sterol regulatory element binding protein) (human (endogenous in SK-Hep1)) (UniProt P36956).
T1 sequence: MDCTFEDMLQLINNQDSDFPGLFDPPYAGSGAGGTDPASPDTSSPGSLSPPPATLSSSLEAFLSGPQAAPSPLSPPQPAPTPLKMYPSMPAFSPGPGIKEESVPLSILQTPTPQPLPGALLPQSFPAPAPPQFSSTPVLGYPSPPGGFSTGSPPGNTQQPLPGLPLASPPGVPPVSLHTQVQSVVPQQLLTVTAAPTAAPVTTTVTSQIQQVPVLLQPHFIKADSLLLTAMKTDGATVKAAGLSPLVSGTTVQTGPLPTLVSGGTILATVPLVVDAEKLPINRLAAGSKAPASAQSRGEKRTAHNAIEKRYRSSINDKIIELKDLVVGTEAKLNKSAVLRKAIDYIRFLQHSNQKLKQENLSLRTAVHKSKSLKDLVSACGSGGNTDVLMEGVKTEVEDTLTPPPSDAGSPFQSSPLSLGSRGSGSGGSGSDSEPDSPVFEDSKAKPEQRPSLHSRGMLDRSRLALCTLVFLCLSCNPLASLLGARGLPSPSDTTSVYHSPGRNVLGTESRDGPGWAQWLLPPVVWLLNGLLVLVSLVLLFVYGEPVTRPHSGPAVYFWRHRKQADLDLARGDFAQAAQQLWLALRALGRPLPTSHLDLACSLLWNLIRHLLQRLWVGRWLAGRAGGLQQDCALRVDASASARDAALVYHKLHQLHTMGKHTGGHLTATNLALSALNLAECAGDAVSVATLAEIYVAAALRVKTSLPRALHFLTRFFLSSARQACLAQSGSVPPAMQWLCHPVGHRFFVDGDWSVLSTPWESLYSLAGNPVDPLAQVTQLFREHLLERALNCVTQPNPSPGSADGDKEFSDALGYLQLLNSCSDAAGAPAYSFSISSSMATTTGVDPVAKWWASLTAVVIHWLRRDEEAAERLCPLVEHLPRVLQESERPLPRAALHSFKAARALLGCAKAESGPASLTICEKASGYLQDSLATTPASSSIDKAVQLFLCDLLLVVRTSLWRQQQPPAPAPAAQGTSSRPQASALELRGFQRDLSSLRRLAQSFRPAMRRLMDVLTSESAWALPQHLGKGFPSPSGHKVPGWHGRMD
The assay is described as above.

Assay [4] concerns the target Ubiquitin-specific peptidase 7 (USP7) (human (endogenous in SK-Hep1 and Huh-7)) (UniProt Q93009). Description: co-IP; endogenous proteins, Huh-7 cells (Supplementary Fig. S1D); immunoprecipitation and immunoblotting.
For assay [5] the target is unchanged. Description: co-IP; endogenous proteins, SK-Hep1 cells lysed in RIPA lysis buffer with protease inhibitors; immunoprecipitation with primary antibody and protein A/G agarose, immunoblotting.
The next assay has as its target FLAG-USP7 full length (UniProt Q93009). Description: co-IP; Flag-USP7 or Flag-tagged truncated mutants (TRAF, CD, HUBL) transfected into SK-Hep1 cells; immunoprecipitation with flag antibody, immunoblotting for the endogenous partner.

No constants are given. Whether binding was seen depends on the method and setting. In cells and extracts the contact can be indirect. Some entries that bind do so weakly or less than the wild type.

“Ubiquitin-specific peptidase 7 (USP7) (from UniProt Q93009 1-1102) (enzyme)”: the binding entry in assay [1], in assay [2] and in assay [3] was “binds” each time.
As for “Zinc finger protein 638 (ZNF638) (from UniProt Q14966 1-1978)”, the binding entry (in assay [4]; in assay [5]; in assay [3]; with FLAG-USP7 full length) was “binds” throughout.
Take “cAMP responsive element binding protein (CREB) (from UniProt P16220 1-327)”: the binding entry in assay [5] is given as “binds”.
